# Test results taken from PubChem BioAssay AID1508600 (Functional Genomics Laboratory (NCATS/FGL), 2020).
# In all, about 53,000 sequences went through this assay and about 3,700 (7%) were called active.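 How the source made its calls: active means gene knockdowns whose robust z-score for IL-1 alpha signal is at least 2 or at most -2, so actives lie on both sides; inactive means the rest.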 Some of the results follow.
# Experiment: Components of the Cytosolic LPS Sensing Pathway: Gene Identification via Genome-wide siRNA Screen;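 further: robust z of the log signal after scaling to non-targeting control siRNA wells of the plate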
# Conditions: RAW264.7 macrophages, IL-1a HTRF, actives lie on both sides, screened at 100 nM (by protocol), cells primed 5 h with Pam3CSK4 first
# Method in brief: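 RAW264.7; siRNA 100 nM final, RNAiMAX, 48h 37 degrees C; Pam3CSK4 5 h; LipidA + TransIT-TKO 24 h; IL-1a HTRF; CellTiter-Glo viability; robust z vs negative-control median.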
row,Sequence,z-score
1,GGCCUUGAAUAGAAAAUGGTT against Olfr1055,inactive: -1.21
2,CGCAAAAACUGGUGUAACCTT against Arhgef1,inactive: -0.958
3,GGCAUUUGCACAGUUUAUGTT against Upp2,inactive: -1.42
4,GGACUUGGAACAGAAAAAGTT against Asb8,inactive: -0.261
5,GGUUUUCAAAGUCCUGAAUTT against Myo3a,inactive: -1.96
6,GGAACAGGAAUGGUAAUGCTT against Tmem39a,inactive: -1.26
7,GGCUUGUGUCCACUUAGCATT against Olfr1404,inactive: -1.01
8,GGCUCUUCGUCGGAAGAAUTT against Ccdc9,inactive: -0.292
9,GACGACAUUCAUGAAGCGCTT against Rasl2-9,inactive: -1.21
10,GGAUAUCAUGAAAACACUCTT against Katna1,inactive: -0.385
11,GGUACAUGUAUUGUUUCACTT against Cyp2c38,active: 2.76
12,CCGCCUACAUGGUUCUCUUTT against Vat1,inactive: -1.46
13,GGGCUUCUUUAGAAGAACCTT against Thrb,inactive: 1.94
14,GGACUUUGUUUCUUGAUGGTT against Dkk1,inactive: -0.771
15,GCUUUCGUGUGAUCUUUUATT against Derl2,inactive: -0.435
16,GGUCUUUUCUACAUGUGGATT against Olfr389,inactive: 0.268
17,GGUGAUGCCUUAUUUUGAATT against Ap5s1,inactive: -1.1
18,GGAUGCUCUGCUAAUGAUUTT against Cadps2,inactive: -0.0687
19,GGUACAUACUUAUGAAAAGTT against Havcr1,inactive: 0.35
20,GGAUACAGUUUCUGAAAUCTT against Mlxipl,active: 2.6
21,CGAUUUGCCUUAUUUUUCATT against Litaf,inactive: 1.23
22,GGAAAAGGUUACCUUGCCCTT against Clmp,inactive: -0.255
23,CGGAGAGACUUUGCCUCUATT against Samd11,inactive: -1.25

row,Sequence,z-score
1,CCUAGAGCGUGCCCUAGAATT against Taco1,inactive: -0.231
2,GGCCAGUCACUCAACCUUATT against Phc1,inactive: -0.421
3,GGUAUUCUUCUACACUCCATT against Mrm1,inactive: -0.693
4,GCGUGUUCACUUGUGUGGUTT against Ap5z1,inactive: 0.553
5,GGACAGCCCUUCUUUGUCUTT against Il17rb,inactive: -1.96
6,CCUCAAUGAAGACCCAUUATT against Kif1b,inactive: -1.35
7,GGUAUAAUUUAGGUGACUATT against Epc1,inactive: -0.723
8,GAUGUUUCAGAACAUUCUUTT against Cadps,inactive: 0.436
9,CGAAUAUCUGCAUUUAUUGTT against Mbip,inactive: 0.513
10,GCCAAUUUGACUUGUAAGUTT against Slc22a3,inactive: 1.4
11,GGUUCUCCAUACUUAUGCCTT against Prex1,active: 2.97
12,CCCUUUGCCGAAUACAUUUTT against Dpys,inactive: 0.892
13,GGAAGAUCAUUGAUAACGCTT against Mctp1,inactive: 0.89
14,CCAAACCUGUCUCUUAUCATT against Slco1c1,inactive: 0.385
15,GCAAUCAAGGUUAAAAUUGTT against Slfn2,inactive: 0.0834
16,GGCGGCACAAAUUGUUUUUTT against Gimap9,active: -2.03
17,GGGCUUGUUAGCAUCAUCCTT against Olfr382,inactive: 1.31
18,CCAUAUAGCCUCAAAAUCGTT against Acat2,inactive: -0.395
19,GGGUGACAACGGUUCUUACTT against Siglech,inactive: -0.626
20,GGCAAGAGGAAAAAGCGGATT against Rpusd2,inactive: 0.0506
21,GGCAAUAACAUUGCCUCGGTT against Igf1r,inactive: 0.632
22,GGAGAUCUACAAGGAAUUCTT against Men1,inactive: 0.97
23,GGGCAAGGAUGUGUUGAAATT against Dhx37,inactive: 0.315

row,Sequence,z-score
1,CGUGCUUAUUUUCAAGAAGTT against Kdf1,inactive: -0.0767
2,CCACAAUUGGGUAAGAUUATT against Glipr2,inactive: -0.585
3,GGAAUUCAACAGACAAAUATT against Paip2,inactive: 0.0793
4,GGUAAAGCCAAAGAACAAATT against Enpp2,inactive: 1.11
5,GACGAAAACCAACAGCACGTT against Rbp2,inactive: -0.0422
6,CCAACGCGCACGGCCGCGCTT against Tmem158,inactive: -0.359
7,GGUAGCUGAAGAAGACUUCTT against Reg2,inactive: -0.591
8,GGCUAACAAACUCAUACCCTT against Guca2a,inactive: -1.68
9,GGAGGAAUUUCUUCUCUAUTT against Slc22a29,inactive: -1.83
10,GGAAGAGGAAGAAAUUAUATT against Zbtb33,inactive: 0.684
11,GGACCAAUCCUACAAUAUATT against Cyp19a1,inactive: 0.289
12,GGUAUUCACAAAGAGAUACTT against Parp8,inactive: 0.107
13,GGAUAUAGAUCUGAUUGACTT against Nfe2l1,inactive: 0.969
14,CCUGGUGUUCGUGUACCUGTT against Cdk5r2,active: 3.1
15,GGACAACAUACGAUAUUCATT against C2cd6,inactive: -0.207
16,GGUUGUUCGUGGACACUACTT against Rpl26,inactive: -0.404
17,GGCAAAGAAUACUAUGUGUTT against Prss48,inactive: -0.181
18,GGAUGAUGACUUUGAGAAGTT against Map2k1,inactive: 1.52
19,GCAGACAUUACCCUAUAGUTT against Mtf2,inactive: 0.21
20,GAGAAUGAGUUCUGCCCAGTT against Lhb,active: 2.24
21,GCUUUUCCACAUUUUAAGGTT against Gtpbp10,inactive: 0.391
22,GGAUUCAUUCAACCCAUGGTT against Olfr1441,inactive: -1.54
23,CCUACAUGUAAUCCAUUUUTT against Rab31,inactive: 0.00773

# Some of the entries so far, tab-delimited:
row	Sequence	z-score
2	CCACAAUUGGGUAAGAUUATT against Glipr2	inactive: -0.585
3	GGAAUUCAACAGACAAAUATT against Paip2	inactive: 0.0793
5	GACGAAAACCAACAGCACGTT against Rbp2	inactive: -0.0422
7	GGUAGCUGAAGAAGACUUCTT against Reg2	inactive: -0.591
8	GGCUAACAAACUCAUACCCTT against Guca2a	inactive: -1.68
9	GGAGGAAUUUCUUCUCUAUTT against Slc22a29	inactive: -1.83
10	GGAAGAGGAAGAAAUUAUATT against Zbtb33	inactive: 0.684
11	GGACCAAUCCUACAAUAUATT against Cyp19a1	inactive: 0.289
12	GGUAUUCACAAAGAGAUACTT against Parp8	inactive: 0.107
13	GGAUAUAGAUCUGAUUGACTT against Nfe2l1	inactive: 0.969
14	CCUGGUGUUCGUGUACCUGTT against Cdk5r2	active: 3.1
16	GGUUGUUCGUGGACACUACTT against Rpl26	inactive: -0.404
17	GGCAAAGAAUACUAUGUGUTT against Prss48	inactive: -0.181
19	GCAGACAUUACCCUAUAGUTT against Mtf2	inactive: 0.21
20	GAGAAUGAGUUCUGCCCAGTT against Lhb	active: 2.24
21	GCUUUUCCACAUUUUAAGGTT against Gtpbp10	inactive: 0.391
22	GGAUUCAUUCAACCCAUGGTT against Olfr1441	inactive: -1.54
23	CCUACAUGUAAUCCAUUUUTT against Rab31	inactive: 0.00773
